No constants are given. Whether binding was seen depends on the method and setting. In cells and extracts the contact can be indirect. These calls come from enrichment with a bait or labelling near it, and not all partners need be listed. Tags and fused reporters may be left off the sequences shown.
Target: T1, His-NOSIP (nitric oxide synthase interacting protein) (UniProt Q9Y314)
T1 sequence: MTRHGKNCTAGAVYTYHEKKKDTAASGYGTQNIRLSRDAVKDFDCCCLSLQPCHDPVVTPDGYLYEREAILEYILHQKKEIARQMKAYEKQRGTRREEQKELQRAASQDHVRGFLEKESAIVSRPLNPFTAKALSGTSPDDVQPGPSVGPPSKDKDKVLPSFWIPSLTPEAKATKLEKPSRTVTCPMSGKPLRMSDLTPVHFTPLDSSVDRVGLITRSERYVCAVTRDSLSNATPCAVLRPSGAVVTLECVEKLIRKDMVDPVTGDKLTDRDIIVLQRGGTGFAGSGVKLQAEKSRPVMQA
Test: affinity purification with mass spectrometry; purified His-NOSIP coupled to a HiTrap NHS-activated HP column; total HeLa cell lysate injected; binding buffer 50 mM Tris-HCl pH 7.5, 150 mM NaCl; eluted with 100 mM glycine-HCl pH 2.5; Coomassie bands analysed by mass spectrometry; unloaded control column; only the target purified

The chains behind the UniProt entries cited, without tags or fusion partners.
UniProt P67775: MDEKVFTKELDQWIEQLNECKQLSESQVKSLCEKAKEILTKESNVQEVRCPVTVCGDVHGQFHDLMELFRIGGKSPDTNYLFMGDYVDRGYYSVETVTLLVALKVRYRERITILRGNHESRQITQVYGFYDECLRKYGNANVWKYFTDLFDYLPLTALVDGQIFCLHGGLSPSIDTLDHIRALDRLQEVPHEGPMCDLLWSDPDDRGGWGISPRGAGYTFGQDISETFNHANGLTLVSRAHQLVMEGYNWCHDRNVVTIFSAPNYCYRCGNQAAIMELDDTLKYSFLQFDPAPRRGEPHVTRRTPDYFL
UniProt P62714: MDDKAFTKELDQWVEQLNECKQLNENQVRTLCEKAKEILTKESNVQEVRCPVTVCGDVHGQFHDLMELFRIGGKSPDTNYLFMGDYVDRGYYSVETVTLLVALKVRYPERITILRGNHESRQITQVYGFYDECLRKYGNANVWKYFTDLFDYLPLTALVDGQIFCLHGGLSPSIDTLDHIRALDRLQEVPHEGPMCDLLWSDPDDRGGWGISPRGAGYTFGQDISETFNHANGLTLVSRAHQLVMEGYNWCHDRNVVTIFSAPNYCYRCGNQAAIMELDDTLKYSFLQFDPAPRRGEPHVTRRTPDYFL
UniProt P30153: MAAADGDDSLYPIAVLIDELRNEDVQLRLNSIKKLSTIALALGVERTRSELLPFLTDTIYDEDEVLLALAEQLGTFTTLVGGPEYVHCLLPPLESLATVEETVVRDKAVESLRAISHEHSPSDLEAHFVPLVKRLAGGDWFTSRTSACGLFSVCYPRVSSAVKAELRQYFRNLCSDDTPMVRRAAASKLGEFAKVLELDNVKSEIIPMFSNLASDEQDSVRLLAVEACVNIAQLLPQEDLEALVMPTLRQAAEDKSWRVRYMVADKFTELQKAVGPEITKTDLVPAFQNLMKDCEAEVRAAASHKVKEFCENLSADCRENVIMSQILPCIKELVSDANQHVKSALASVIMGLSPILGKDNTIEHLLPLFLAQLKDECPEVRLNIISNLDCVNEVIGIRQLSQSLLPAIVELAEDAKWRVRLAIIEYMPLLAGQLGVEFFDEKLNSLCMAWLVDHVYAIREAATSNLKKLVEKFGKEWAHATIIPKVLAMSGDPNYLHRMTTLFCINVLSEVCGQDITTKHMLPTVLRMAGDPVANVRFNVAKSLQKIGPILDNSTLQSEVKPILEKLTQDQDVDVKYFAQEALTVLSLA
UniProt P63151: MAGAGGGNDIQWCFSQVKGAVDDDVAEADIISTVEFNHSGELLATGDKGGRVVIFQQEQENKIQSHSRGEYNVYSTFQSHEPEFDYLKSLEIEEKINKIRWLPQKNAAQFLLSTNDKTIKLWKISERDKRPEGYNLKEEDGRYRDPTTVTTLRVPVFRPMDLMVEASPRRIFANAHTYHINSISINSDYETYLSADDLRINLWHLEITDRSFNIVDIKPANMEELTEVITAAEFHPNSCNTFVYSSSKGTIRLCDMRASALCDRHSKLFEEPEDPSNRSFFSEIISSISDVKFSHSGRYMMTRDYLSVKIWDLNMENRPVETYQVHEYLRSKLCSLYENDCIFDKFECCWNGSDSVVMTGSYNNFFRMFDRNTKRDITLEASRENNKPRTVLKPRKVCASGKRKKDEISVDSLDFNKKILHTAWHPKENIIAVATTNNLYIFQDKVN

Row | binding | Substance
1 | binds | PP2A catalytic subunit alpha isoform (from UniProt P67775 1-309) (enzyme)
2 | binds | PP2A catalytic subunit beta isoform (from UniProt P62714 1-309) (enzyme)
3 | binds | PP2A subunit A isoform PR65-alpha (from UniProt P30153 1-589)
4 | binds | PP2A subunit B isoform B55-alpha (from UniProt P63151 1-447)

— PMC4278855
